Results taken from paper PMC8354175.
Results are given in words; binding and its absence hold for the method and conditions named. Binding seen in cells or lysates may run through a third protein. Some entries that bind do so weakly or less than the wild type.

The chains behind the UniProt entries cited, without tags or fusion partners. Residues count along the entry.
UniProt P01137, residues 279-390: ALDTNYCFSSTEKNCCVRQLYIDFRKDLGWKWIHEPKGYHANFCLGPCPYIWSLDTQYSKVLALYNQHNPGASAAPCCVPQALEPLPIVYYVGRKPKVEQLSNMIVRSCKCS

Molecular target: T1, bone morphogenetic protein and activin membrane-bound inhibitor (human (endogenous in BPH-1)) (UniProt Q13145)
T1 sequence: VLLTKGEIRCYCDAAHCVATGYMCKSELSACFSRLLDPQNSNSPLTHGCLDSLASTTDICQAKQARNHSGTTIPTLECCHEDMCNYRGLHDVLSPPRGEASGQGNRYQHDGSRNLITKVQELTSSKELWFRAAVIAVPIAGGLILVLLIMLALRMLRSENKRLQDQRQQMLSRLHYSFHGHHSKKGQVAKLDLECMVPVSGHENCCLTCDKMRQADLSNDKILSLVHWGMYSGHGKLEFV
Assay: co-IP; antibodies against TGF-β1 or BAMBI immobilised on resin; BPH-1 cell lysate supernatant incubated at 4 °C for 1 h; eluate blotted with anti-TGF-β1 or anti-BAMBI; cells treated with LPS, TGF-β1 and with or without curcumin

binding: binds
Substance: transforming growth factor β1 (from UniProt P01137 279-390) (ligand)
